The source of these data is publication PMC3940878.

Test [1] concerns the target T1, AdipoR1N (aa's 1-70) fused to the C-terminus of T25 (plasmid pKT25-AdipoR1N) (UniProt Q96A54).
T1 sequence: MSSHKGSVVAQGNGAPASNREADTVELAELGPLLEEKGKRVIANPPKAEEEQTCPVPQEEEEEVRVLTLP
Description: two-hybrid; bacterial adenylate cyclase-based two-hybrid (BACTH) in E. coli BTH101, T18 and T25 fusions, 1 mM IPTG, 18 h, beta-galactosidase activity in Miller units.

Test [2] addresses T2, AdipoR1N (aa's 1-70) fused to T25 in vector pKTN25 (plasmid pKTN25-AdipoR1N) (UniProt Q96A54).
T2 sequence: T1 sequence
The test is described as above.

These are yes or no findings as the source states them, for the method shown. Where a sequence is shown, tags or fusion partners need not be part of it.

As for “ERp46N (aa's 33-70) with a 34 aa linker, fused to the C-terminus of T18 (plasmid pUT18C-L-ERp46N) (from UniProt Q8NBS9 33-70) (domain or fragment)”, the binding entry in test [1] and in test [2] was “no binding” throughout.

Take “ERp46N (aa's 33-70) fused to the C-terminus of T18 (plasmid pUT18C-ERp46N) (from UniProt Q8NBS9 33-70) (domain or fragment)”: the binding entry in test [1] and in test [2] was “no binding” in each case.
